Where “and” joins values, the source holds several entries; their conditions need not be identical. Equal entries are not always repeated. The list shows a part of the results. Many values rest on one well or one pass, so single values are uncertain.
What was measured:
[1] = system: MEPP (mouse ovarian epithelium Trp53/Pten KO); experiment: cell viability relative to untreated (fraction); higher = less growth inhibition; details: 5 µM; 3 days
[2] = system: PREPP (mouse prostate epithelium Trp53/Pten KO); experiment: as above; details: 5 µM; 3 days

| Structure (SMILES) | cell viability [1] | cell viability [2] |
| --- | --- | --- |
| C[C@]12CC[C@@H]3c4ccc(O)cc4CC[C@H]3[C@@H]1CC[C@@H]2OC(=O)CCC1CCCC1 | 0.975 | 0.936 |
| O=C(O)CCC(=O)Nc1ccc(S(=O)(=O)Nc2nccs2)cc1 | 0.881 | 1.13 |
| Cc1ncc([N+](=O)[O-])n1CC(O)CCl (stereo unspecified) | 1.16 | 0.956 |
| C[C@H](CCCC(C)(C)O)[C@H]1CC[C@H]2[C@@H]3CC=C4C[C@@H](O)CC[C@]4(C)[C@H]3CC[C@]12C | 1.07 | 0.842 |
| CC(=O)Oc1c(C)c(C)c2c(c1C)CCC(C)(CCC[C@H](C)CCC[C@H](C)CCCC(C)C)O2 (stereo partly specified) | 0.961 | 0.998 |
| O[C@H]1[C@H]2c3cc4c(cc3CN3CCC(=C[C@@H]1O)[C@H]23)OCO4 | 0.51 | 0.538 |
| CC(=O)Nc1ncc([N+](=O)[O-])s1 | 1.05 | 0.86 |
| Cn1c(=O)c2c(ncn2CC(O)CO)n(C)c1=O (stereo unspecified) | 1.01 | 0.951 |
| CCCCCC=CC(=O)CCc1ccc(O)c(OC)c1 | 0.868 | 1.08 |
| C[C@]12C=CC(=O)C=C1CC[C@@H]1[C@@H]2[C@@H](O)C[C@@]2(C)[C@H]1CC[C@]2(O)C(=O)CO | 0.889 | 0.825 |
| CC1(C)[C@@H](O)CC[C@]2(C)[C@H]3C(=O)C=C4[C@@H]5C[C@@](C)(C(=O)O)CC[C@]5(C)CC[C@@]4(C)[C@]3(C)CC[C@@H]12 | 0.911 and 0.853 | 1.08 and 0.807 |
| NCCc1ccc(O)c(O)c1 | 1.09 | 0.943 |
| CSCCC(NC(C)=O)C(=O)O (stereo unspecified) | 0.868 | 0.916 |
| COc1cccc(C(=O)O)c1 | 1.04 | 0.862 |
| Cc1c(C)c2c(c(C)c1O)CC[C@@](C)(CCC[C@H](C)CCC[C@H](C)CCCC(C)C)O2 | 1.37 | 0.993 |
| NC(=O)C1=CN([C@@H]2O[C@H](COP(=O)(O)OP(=O)(O)OC[C@H]3O[C@@H](n4cnc5c(N)ncnc54)C(O)C3O)C(O)C2O)C=CC1 (stereo partly specified) | 1.05 | 0.886 |
| Oc1cc(O)c2c(c1)O[C@H](c1ccc(O)c(O)c1)[C@@H](O)C2 | 0.926 | 0.978 |
| CCCCCCCCCCCCCCCCCCCCCC(=O)O | 1.17 | 1 |
| O=C(O)CCCCCC(=O)O | 0.905 | 0.976 |

2 records drawn at random from those above:

| Structure (SMILES) | cell viability [1] | cell viability [2] |
| --- | --- | --- |
| CC(=O)Nc1ncc([N+](=O)[O-])s1 | 1.05 | 0.86 |
| CC1(C)[C@@H](O)CC[C@]2(C)[C@H]3C(=O)C=C4[C@@H]5C[C@@](C)(C(=O)O)CC[C@]5(C)CC[C@@]4(C)[C@]3(C)CC[C@@H]12 | 0.911 and 0.853 | 1.08 and 0.807 |

(more compounds)

| Structure (SMILES) | cell viability [1] | cell viability [2] |
| --- | --- | --- |
| Cc1ccc(C(C)C)cc1O | 1.15 | 0.928 |
| Nc1ccc(S(=O)(=O)Nc2ccccn2)cc1 | 1.11 | 0.878 |
| OC[C@@H](O)[C@H](O)[C@@H](O)CO | 1.09 | 0.957 |
| O=C(O)C1=CO[C@@H](O[C@@H]2O[C@H](CO)[C@@H](O)[C@H](O)[C@H]2O)[C@H]2[C@@H]1C=C[C@]2(O)CO | 0.951 | 0.894 |
| Cc1cc(NS(=O)(=O)c2ccc(N)cc2)no1 | 0.803 and 1.32 | 0.932 and 0.93 |
| C[C@H](CCC(=O)NCC(=O)O)[C@H]1CC[C@H]2[C@@H]3[C@@H](O)C[C@@H]4C[C@H](O)CC[C@]4(C)[C@H]3CC[C@]12C | 0.993 | 0.861 |
| Cc1cc(O)c2c(c1)C(=O)c1cc(O)cc(O)c1C2=O | 1.11 | 0.853 |
| Cl.NCCCC[C@H](N)C(=O)O | 1.07 | 1 |
| FC(F)(F)Oc1ccc(-c2ccc3nnc(C(F)(F)F)n3c2)cc1 | 1.02 | 0.933 |
| Nc1ncnc2c1ncn2[C@H]1C[C@H](O)[C@@H](CO)O1 | 0.839 | 0.999 |
| COc1cc(C(=O)O)cc(OC)c1O | 0.904 | 0.938 |
| O=C(O)C(=O)O | 1.01 | 0.931 |
| O=C(O)c1c[nH]c(=O)[nH]c1=O | 0.989 | 1.09 |
| O=Cc1ccc(CO)o1 | 1.74 | 0.941 |
| O=c1ccn([C@@H]2O[C@H](COP(=O)(O)O)[C@@H](O)[C@H]2O)c(=O)[nH]1 | 0.914 | 0.969 |
| C[C@H]1O[C@H](O[C@@H]2[C@@H](O)[C@H](OCCc3ccc(O)c(O)c3)O[C@H](CO[C@H]3O[C@@H](CO)[C@H](O)[C@@H](O)[C@@H]3O)[C@H]2OC(=O)/C=C/c2ccc(O)c(O)c2)[C@@H](O)[C@@H](O)[C@@H]1O | 1.03 | 0.967 |
| Nc1c(O)cccc1C(=O)O | 0.943 | 0.892 |
| C[C@H]1O[C@@H](O[C@H]2CC[C@@]3(C)[C@@H](CC[C@]4(C)[C@@H]3C=C[C@]35OC[C@@]6(CCC(C)(C)C[C@H]63)[C@@H](O)C[C@]54C)[C@]2(C)CO)[C@H](O)[C@@H](O[C@@H]2O[C@H](CO)[C@@H](O)[C@H](O)[C@H]2O)[C@H]1O | 0.363 | 0.871 |
| C/C=C(\C)C(=O)OC1c2c(ccc3ccc(=O)oc23)OC(C)(C)C1OC(=O)/C(C)=C/C (stereo unspecified) | 1.01 | 1.23 |

From the supplement of paper PMC12873370
